Measured values from the supplement of paper PMC4604168 (melanoma cell lines).
This is one part of the list. Repeats are few or missing, and single values can be far off.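 Cells were imaged in 1,536-well plates, and nuclei stained with an antibody against cleaved PARP were counted against all DNA-stained nuclei to give the apoptosis fraction. Screening doses were chosen to leave most cells alive, and resting and induced cleaved-PARP levels differ strongly between cell lines.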

The compounds below were run on CBRC016 (line from a melanoma biopsy) (assay: cleaved PARP positive nuclei fraction relative to DMSO control; melanoma cells; higher = more apoptosis). Conditions: library dose: low library concentration; 72 h.
Cn1cc(C2=C(c3cn(C4CCN(Cc5ccccn5)CC4)c4ccccc34)C(=O)NC2=O)c2ccccc21 [Enzastaurin] + C#Cc1cccc(Nc2ncnc3cc(OCCOC)c(OCCOC)cc23)c1 [erlotinib] (first compound 0.8 µM, partner dose 0.8 µM) was tested, and the “cleaved PARP positive nuclei fraction” value was 54.5%.
With C[C@]12O[C@H](C[C@]1(O)CO)n1c3ccccc3c3c4c(c5c6ccccc6n2c5c31)CNC4=O [Lestaurtinib] + CC(=O)O[C@@]12CO[C@@H]1C[C@H](O)[C@@]1(C)C(=O)[C@H](O)C3=C(C)[C@@H](OC(=O)[C@H](O)[C@@H](NC(=O)OC(C)(C)C)c4ccccc4)C[C@@](O)([C@@H](OC(=O)c4ccccc4)[C@H]21)C3(C)C [Docetaxel] (first compound 0.004 µM, partner dose 0.0001 µM) the “cleaved PARP positive nuclei fraction” value was 267%.
C[C@]12O[C@H](C[C@]1(O)CO)n1c3ccccc3c3c4c(c5c6ccccc6n2c5c31)CNC4=O [Lestaurtinib] + CS(=O)(=O)c1ccc(C(=O)Nc2ccc(Cl)c(-c3ccccn3)c2)c(Cl)c1 [vismodegib] (first compound 0.004 µM, partner dose 1 µM) was tested, and the “cleaved PARP positive nuclei fraction” value was 133%.
For N.N.[Cl][Pt][Cl] [cisplatin] + C=CCNC1=C2C[C@@H](C)C[C@H](OC)[C@H](O)[C@@H](C)/C=C(\C)[C@H](OC(N)=O)[C@@H](OC)/C=C\C=C(/C)C(=O)NC(=CC1=O)C2=O [Tanespimycin] (first compound 1.6 µM, partner dose 0.002 µM), the “cleaved PARP positive nuclei fraction” value was 133%.
For O=C(/C=C/c1cccnc1)NCCCCC1CCN(C(=O)c2ccccc2)CC1 + C[C@]12O[C@H](C[C@]1(O)CO)n1c3ccccc3c3c4c(c5c6ccccc6n2c5c31)CNC4=O [Lestaurtinib] (first compound 0.01 µM, partner dose 0.004 µM), the “cleaved PARP positive nuclei fraction” value was 1530%.
With N.N.[Cl][Pt][Cl] [cisplatin] + OCc1c[nH]c2ccccc12 [Indole-3-carbinol] (first compound 1.6 µM, partner dose 0.8 µM) the “cleaved PARP positive nuclei fraction” value was 91.6%.
In the case of Cn1cc(C2=C(c3cn(C4CCN(Cc5ccccn5)CC4)c4ccccc34)C(=O)NC2=O)c2ccccc21 [Enzastaurin] + CO[C@H]1C[C@@H]2CC[C@@H](C)[C@@](O)(O2)C(=O)C(=O)N2CCCC[C@H]2C(=O)O[C@H]([C@H](C)C[C@@H]2CC[C@@H](OCCO)[C@H](OC)C2)CC(=O)[C@H](C)/C=C(\C)[C@@H](O)[C@@H](OC)C(=O)[C@H](C)C[C@H](C)/C=C/C=C/C=C/1C [everolimus] (first compound 0.8 µM, partner dose 0.02 µM), the “cleaved PARP positive nuclei fraction” value is reported as 249%.
With O=C(/C=C/c1cccnc1)NCCCCC1CCN(C(=O)c2ccccc2)CC1 + C[As](C)SC[C@H](NC(=O)CC[C@H](N)C(=O)O)C(=O)NCC(=O)O [Darinaparsin] (first compound 0.01 µM, partner dose 0.4 µM) the “cleaved PARP positive nuclei fraction” value was 1250%.
For OCc1c[nH]c2ccccc12 [Indole-3-carbinol] + C[As](C)SC[C@H](NC(=O)CC[C@H](N)C(=O)O)C(=O)NCC(=O)O [Darinaparsin] (first compound 0.8 µM, partner dose 0.4 µM), the “cleaved PARP positive nuclei fraction” value was 94.6%.
Nc1ccn([C@@H]2O[C@H](CO)[C@@H](O)C2(F)F)c(=O)n1 [gemcitabine] + C[As](C)SC[C@H](NC(=O)CC[C@H](N)C(=O)O)C(=O)NCC(=O)O [Darinaparsin] (first compound 0.0004 µM, partner dose 0.4 µM) was tested, and the “cleaved PARP positive nuclei fraction” value was 90.7%.
With Cn1c(=O)n(-c2ccc(C(C)(C)C#N)cc2)c2c3cc(-c4cnc5ccccc5c4)ccc3ncc21 + C[As](C)SC[C@H](NC(=O)CC[C@H](N)C(=O)O)C(=O)NCC(=O)O [Darinaparsin] (first compound 0.004 µM, partner dose 0.4 µM) the “cleaved PARP positive nuclei fraction” value was 88.7%.
For N.N.[Cl][Pt][Cl] [cisplatin] + Cc1nc(Nc2ncc(C(=O)Nc3c(C)cccc3Cl)s2)cc(N2CCN(CCO)CC2)n1 [dasatanib] (first compound 1.6 µM, partner dose 0.004 µM), the “cleaved PARP positive nuclei fraction” value was 195%.
In the case of N.N.[Cl][Pt][Cl] [cisplatin] + C[C@@H](Oc1cc(-c2cnn(C3CCNCC3)c2)cnc1N)c1c(Cl)ccc(F)c1Cl [Crizotinib] (first compound 1.6 µM, partner dose 0.2 µM), the “cleaved PARP positive nuclei fraction” value is reported as 256%.
Cn1cc(C2=C(c3cn(C4CCN(Cc5ccccn5)CC4)c4ccccc34)C(=O)NC2=O)c2ccccc21 [Enzastaurin] + O=C(O)[C@@H]1[O][Sb](=[O])([O][Sb]2(=[O])[O][C@H]([C@H](O)CO)[C@H](O)[C@H](C(=O)O)[O]2)[O][C@H]([C@H](O)CO)[C@@H]1O [stibogluconate] (first compound 0.8 µM, partner dose 2 µM) was tested, and the “cleaved PARP positive nuclei fraction” value was 115%.
With C[C@]12O[C@H](C[C@]1(O)CO)n1c3ccccc3c3c4c(c5c6ccccc6n2c5c31)CNC4=O [Lestaurtinib] + Nc1ccn([C@@H]2O[C@H](CO)[C@@H](O)C2(F)F)c(=O)n1 [gemcitabine] (first compound 0.004 µM, partner dose 0.0004 µM) the “cleaved PARP positive nuclei fraction” value was 48.8%.
In the case of N.N.[Cl][Pt][Cl] [cisplatin] + CN1CCN(c2ccc3nc(-c4c(N)c5c(F)cccc5[nH]c4=O)[nH]c3c2)CC1 [Dovitinib] (first compound 1.6 µM, partner dose 0.1 µM), the “cleaved PARP positive nuclei fraction” value is reported as 92.7%.
NC1(c2ccc(-c3nc4ccn5c(=O)[nH]nc5c4cc3-c3ccccc3)cc2)CCC1 + C[As](C)SC[C@H](NC(=O)CC[C@H](N)C(=O)O)C(=O)NCC(=O)O [Darinaparsin] (first compound 0.4 µM, partner dose 0.4 µM) was tested, and the “cleaved PARP positive nuclei fraction” value was 110%.
